No constants are given. Whether binding was seen depends on the method and setting. Binding seen in cells or lysates may run through a third protein. Some binding calls cover weakened binding; strength is not graded here.

Sequences of proteins named here, by UniProt entry; tags and fusion partners are left off.
UniProt Q14152: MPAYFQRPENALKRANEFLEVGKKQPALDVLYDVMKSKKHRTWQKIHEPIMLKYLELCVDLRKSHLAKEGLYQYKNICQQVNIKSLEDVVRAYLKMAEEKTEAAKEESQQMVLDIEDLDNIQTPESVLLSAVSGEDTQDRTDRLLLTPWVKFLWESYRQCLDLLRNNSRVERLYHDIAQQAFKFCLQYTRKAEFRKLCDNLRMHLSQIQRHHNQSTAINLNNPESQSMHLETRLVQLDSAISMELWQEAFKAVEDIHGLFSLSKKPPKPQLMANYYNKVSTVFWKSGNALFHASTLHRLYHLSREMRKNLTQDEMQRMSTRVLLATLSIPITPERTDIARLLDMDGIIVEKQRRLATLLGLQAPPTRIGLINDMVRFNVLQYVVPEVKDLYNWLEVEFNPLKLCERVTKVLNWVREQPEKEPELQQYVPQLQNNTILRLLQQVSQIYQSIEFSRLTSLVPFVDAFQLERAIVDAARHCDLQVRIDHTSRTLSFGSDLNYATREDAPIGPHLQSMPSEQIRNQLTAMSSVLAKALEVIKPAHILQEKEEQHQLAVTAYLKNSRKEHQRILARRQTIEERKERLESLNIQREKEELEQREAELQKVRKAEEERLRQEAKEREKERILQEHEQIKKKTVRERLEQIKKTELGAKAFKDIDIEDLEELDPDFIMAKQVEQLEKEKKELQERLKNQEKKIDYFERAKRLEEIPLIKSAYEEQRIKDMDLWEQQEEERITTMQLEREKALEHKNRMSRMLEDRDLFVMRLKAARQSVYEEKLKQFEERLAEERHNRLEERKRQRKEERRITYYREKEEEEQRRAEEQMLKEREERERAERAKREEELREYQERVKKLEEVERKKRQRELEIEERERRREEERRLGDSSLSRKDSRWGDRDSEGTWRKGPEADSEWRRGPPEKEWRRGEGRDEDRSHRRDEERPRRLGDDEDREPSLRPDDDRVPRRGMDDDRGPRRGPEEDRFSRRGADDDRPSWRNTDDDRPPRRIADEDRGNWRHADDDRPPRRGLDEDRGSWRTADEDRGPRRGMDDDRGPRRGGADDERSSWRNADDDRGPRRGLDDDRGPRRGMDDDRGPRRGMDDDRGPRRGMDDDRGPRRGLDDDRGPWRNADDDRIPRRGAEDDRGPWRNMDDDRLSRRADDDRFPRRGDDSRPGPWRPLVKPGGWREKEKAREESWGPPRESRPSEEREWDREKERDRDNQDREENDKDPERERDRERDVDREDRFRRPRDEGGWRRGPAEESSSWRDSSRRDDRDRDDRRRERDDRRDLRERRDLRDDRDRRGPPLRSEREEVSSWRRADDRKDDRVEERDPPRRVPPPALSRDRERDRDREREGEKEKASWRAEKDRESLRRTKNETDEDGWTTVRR
UniProt Q99613: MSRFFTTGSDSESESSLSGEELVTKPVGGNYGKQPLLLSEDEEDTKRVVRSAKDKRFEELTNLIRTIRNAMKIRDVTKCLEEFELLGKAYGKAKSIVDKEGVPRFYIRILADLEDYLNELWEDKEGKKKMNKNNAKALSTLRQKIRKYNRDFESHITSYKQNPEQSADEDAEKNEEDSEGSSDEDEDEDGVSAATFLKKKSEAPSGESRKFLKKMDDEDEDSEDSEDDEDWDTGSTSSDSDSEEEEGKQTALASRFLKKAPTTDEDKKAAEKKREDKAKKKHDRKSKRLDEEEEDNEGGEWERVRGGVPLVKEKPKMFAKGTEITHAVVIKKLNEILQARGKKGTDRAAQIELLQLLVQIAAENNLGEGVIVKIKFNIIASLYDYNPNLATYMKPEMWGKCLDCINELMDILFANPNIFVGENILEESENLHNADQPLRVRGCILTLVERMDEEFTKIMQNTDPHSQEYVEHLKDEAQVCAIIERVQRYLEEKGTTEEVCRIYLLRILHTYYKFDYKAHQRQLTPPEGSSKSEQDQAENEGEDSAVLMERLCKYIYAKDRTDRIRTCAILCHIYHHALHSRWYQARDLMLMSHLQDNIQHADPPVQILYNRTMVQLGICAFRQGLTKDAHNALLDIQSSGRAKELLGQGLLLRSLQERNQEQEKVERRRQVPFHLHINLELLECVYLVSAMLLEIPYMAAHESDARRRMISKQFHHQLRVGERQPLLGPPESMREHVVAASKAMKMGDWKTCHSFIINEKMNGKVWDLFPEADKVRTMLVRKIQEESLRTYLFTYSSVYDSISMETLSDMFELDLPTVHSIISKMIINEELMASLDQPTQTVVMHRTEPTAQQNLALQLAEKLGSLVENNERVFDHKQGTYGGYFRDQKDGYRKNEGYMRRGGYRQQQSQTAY
UniProt P60228: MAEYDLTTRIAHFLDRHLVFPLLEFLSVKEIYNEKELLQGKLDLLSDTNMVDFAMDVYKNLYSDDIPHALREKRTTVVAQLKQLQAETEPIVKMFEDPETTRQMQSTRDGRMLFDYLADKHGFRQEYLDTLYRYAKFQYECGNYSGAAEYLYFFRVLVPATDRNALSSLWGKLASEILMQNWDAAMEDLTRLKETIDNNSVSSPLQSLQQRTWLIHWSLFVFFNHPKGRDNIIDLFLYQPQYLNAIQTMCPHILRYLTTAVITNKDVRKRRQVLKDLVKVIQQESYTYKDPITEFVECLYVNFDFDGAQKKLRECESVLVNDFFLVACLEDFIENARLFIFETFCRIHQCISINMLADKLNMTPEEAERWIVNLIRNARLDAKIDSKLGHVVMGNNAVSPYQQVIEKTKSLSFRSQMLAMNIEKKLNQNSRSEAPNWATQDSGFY
UniProt O00303: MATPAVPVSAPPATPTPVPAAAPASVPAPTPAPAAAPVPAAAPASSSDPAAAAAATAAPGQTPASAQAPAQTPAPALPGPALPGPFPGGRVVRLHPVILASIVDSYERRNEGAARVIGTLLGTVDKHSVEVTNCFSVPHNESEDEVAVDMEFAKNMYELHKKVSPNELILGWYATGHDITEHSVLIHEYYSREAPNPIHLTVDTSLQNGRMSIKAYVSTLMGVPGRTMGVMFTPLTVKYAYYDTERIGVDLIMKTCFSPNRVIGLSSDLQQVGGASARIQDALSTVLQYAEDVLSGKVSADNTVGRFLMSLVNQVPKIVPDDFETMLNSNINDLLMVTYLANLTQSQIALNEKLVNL
UniProt Q9UBQ5: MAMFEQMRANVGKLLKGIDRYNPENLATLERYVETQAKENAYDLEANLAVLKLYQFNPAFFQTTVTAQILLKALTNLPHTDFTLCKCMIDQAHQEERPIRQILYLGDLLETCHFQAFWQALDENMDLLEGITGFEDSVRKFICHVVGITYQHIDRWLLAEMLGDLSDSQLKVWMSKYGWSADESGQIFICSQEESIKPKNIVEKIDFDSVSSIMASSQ
UniProt Q9Y262: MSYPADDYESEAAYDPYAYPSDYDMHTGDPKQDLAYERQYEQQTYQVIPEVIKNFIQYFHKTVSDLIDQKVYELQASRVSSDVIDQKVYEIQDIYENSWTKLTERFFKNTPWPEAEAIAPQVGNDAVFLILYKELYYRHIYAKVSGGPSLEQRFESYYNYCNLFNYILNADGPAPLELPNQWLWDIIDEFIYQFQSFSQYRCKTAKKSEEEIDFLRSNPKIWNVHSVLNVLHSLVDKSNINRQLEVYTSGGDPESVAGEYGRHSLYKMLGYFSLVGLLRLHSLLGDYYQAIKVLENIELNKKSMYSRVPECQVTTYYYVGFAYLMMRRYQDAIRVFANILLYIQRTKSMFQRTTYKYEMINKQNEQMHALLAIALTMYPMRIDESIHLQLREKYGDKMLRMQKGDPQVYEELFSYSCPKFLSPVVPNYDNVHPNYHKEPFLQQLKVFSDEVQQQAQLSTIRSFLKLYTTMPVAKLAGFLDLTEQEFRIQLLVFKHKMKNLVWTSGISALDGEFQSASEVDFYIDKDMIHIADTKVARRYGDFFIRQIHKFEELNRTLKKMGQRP

Assay [1] addresses human eIF3a with STREP tag in place of the FLAG tag (human) (UniProt Q14152). Briefly: pull-down + SEC; modified system: Strep tag on eIF3a (none on eIF3c); same workflow (Strep affinity, Heparin, SEC); analytical SEC on Superose6 3.2/300 and SDS-PAGE of fractions.
Assay [2] addresses human eIF3c with C-terminal Strep tag (human) (UniProt Q99613). Briefly: pull-down; small-scale test: Strep tag on eIF3c captured on MagStrep Strep-Tactin XT beads from cleared Hi5 lysate (co-infection pBIG2AB/CD; hypotonic lysis buffer), 2 h at 4°C; 3 washes with 20 mM Hepes-KOH pH 7.5, 100 mM KCl, 10% glycerol, 1 mM DTT; eluate on SDS-PAGE, Coomassie.
The target is the same in assay [3]. Description: pull-down + SEC; eIF3-∆bgi expressed without eIF3b, g, i; Strep tag on eIF3c captured by Streptactin chromatography from lysate; Heparin; Superose6 SEC; SDS-PAGE, Western blot, mass photometry at 50 nM. Background: Immunoblotting shows a protein as a band on a membrane.

In the case of human eIF3e (from UniProt P60228 1-445), in assay [1], the binding result was “binds”.

Turning to human eIF3f (from UniProt O00303 1-357), the binding result in assay [2], in assay [3] and in assay [1] was “binds” each time.

Consider human eIF3k (from UniProt Q9UBQ5 1-218), for which the binding entry in assay [2], in assay [3] and in assay [1] was “binds” in each case.

Take human eIF3l (from UniProt Q9Y262 1-564): the binding entry in assay [2], in assay [3] and in assay [1] was “binds” each time.
